According to article PMC11128410:
Results are given in words; binding and its absence hold for the method and conditions named. In cells and extracts the contact can be indirect. Some entries that bind do so weakly or less than the wild type.

Protein sequences, listed by entry. Tags and fused reporters are not part of them.
UniProt O94762: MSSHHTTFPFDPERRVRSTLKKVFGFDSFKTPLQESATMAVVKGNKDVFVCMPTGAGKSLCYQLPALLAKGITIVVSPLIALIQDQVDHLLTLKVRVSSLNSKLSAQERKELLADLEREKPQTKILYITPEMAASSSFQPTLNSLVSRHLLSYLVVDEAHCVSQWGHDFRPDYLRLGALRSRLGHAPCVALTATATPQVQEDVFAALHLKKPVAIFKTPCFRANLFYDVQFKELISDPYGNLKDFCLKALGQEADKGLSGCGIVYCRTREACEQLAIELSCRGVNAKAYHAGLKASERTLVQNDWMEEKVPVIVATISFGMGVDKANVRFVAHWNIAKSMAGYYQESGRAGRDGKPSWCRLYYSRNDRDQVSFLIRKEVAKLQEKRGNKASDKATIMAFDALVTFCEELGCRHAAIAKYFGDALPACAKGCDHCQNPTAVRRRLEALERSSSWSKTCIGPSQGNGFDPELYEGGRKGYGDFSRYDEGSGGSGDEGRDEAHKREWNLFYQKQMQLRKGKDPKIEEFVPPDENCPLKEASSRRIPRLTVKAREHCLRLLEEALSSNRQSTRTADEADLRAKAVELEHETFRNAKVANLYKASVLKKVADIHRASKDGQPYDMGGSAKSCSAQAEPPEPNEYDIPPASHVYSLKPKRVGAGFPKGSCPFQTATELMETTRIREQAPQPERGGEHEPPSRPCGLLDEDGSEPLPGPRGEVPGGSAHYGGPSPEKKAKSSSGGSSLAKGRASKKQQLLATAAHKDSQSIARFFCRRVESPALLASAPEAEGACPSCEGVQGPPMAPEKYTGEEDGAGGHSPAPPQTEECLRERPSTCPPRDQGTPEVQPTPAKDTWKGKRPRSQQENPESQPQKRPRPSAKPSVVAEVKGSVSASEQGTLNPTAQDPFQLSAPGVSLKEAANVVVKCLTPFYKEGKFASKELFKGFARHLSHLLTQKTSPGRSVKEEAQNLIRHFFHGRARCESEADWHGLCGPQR
UniProt P04050: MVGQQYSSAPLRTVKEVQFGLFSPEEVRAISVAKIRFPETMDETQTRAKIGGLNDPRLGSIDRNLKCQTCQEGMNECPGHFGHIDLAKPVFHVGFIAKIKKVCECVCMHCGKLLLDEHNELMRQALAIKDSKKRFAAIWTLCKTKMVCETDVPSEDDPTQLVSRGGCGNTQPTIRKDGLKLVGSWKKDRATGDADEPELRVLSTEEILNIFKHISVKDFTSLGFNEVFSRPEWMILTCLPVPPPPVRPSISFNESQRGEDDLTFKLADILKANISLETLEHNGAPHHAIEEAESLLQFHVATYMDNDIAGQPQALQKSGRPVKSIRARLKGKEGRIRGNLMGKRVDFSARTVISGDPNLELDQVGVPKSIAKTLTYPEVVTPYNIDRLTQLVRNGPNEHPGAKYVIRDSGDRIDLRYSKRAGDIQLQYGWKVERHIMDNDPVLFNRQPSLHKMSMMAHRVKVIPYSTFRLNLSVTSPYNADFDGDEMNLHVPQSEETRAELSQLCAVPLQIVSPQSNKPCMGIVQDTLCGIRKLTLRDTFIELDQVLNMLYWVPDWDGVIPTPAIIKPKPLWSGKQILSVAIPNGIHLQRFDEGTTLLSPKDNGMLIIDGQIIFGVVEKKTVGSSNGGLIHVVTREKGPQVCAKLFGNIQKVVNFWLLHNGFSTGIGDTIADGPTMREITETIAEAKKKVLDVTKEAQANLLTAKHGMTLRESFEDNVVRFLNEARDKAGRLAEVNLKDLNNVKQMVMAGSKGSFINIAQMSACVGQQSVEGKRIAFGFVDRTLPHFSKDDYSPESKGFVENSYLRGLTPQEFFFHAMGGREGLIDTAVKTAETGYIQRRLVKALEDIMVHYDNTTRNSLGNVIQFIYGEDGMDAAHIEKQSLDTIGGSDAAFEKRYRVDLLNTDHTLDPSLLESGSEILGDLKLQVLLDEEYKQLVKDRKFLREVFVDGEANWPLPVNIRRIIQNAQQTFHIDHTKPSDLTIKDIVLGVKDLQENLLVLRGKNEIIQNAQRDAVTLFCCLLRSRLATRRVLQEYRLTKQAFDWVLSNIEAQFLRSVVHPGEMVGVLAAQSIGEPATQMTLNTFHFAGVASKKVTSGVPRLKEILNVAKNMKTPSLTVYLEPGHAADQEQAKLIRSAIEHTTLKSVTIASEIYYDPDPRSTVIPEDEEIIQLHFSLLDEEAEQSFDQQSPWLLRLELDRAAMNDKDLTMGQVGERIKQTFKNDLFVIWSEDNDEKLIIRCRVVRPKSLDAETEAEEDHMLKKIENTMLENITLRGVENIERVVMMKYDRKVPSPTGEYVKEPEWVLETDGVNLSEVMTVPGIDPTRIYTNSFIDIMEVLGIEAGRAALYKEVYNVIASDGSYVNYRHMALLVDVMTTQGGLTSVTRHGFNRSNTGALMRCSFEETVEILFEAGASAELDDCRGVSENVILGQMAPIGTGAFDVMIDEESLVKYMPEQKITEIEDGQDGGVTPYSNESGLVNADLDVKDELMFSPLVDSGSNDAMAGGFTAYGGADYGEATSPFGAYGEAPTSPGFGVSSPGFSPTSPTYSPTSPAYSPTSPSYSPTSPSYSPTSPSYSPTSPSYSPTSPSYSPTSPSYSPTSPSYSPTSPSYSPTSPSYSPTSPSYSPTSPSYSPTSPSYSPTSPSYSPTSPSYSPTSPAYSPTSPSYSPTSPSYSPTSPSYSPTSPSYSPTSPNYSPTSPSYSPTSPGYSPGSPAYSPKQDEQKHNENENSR

Assays:
[1] = molecular target: human RECQL5, wild type, FLAG-tagged (GAL::RECQL5) (human) (UniProt O94762); assay: co-IP; whole cell extracts of yeast expressing FLAG-tagged RECQL5 constructs from the GAL1 promoter (galactose 4 h); precipitation with FLAG antibody on Dynabeads Protein A, 3 h at 4 °C; lysis buffer 50 mM Tris HCl pH 7.5, 100 mM NaCl, 1.5 mM MgCl2, NP40, DTT; blot for Rpb1
[2] = molecular target: Rpb1 subunit of yeast RNA polymerase II (S. cerevisiae (endogenous in yeast cells)) (UniProt P04050); assay: co-IP; whole cell extracts of yeast expressing FLAG-tagged RECQL5 constructs from the GAL1 promoter (galactose 4 h); precipitation with anti-Rpb1 (8WG16); blot for FLAG

| binding [1] | binding [2] | Substance |
| --- | --- | --- |
| binds |  | Rpb1 subunit of yeast RNA polymerase II (from UniProt P04050 1-1733) |
|  | binds | human RECQL5, wild type, FLAG-tagged (GAL::RECQL5) (from UniProt O94762 1-991) (enzyme) |
